{"source": "patent US5266599A", "about": "“Use of (+)-1-[(3,4,5-trimethoxy)-benzyloxymethyl]-1-phenyl-N,N-dimethyl-n-propy lamine to increase gastric discharge in a subject” (priority 1989, dated 1993)", "tested_on": "duodenum of the rat", "assay_type": "cell-based"}
{"molecule": "CN1CC[C@]23c4c5ccc(O)c4O[C@H]2[C@@H](O)C=C[C@H]3[C@H]1C5", "note": "[Morphine]", "values": [{"measurement": "IC50, inhibition of 50% of the amplitude of contractions", "result": "Inactive at 10^-4"}]}
